Measured values: US11352308B2, “Compound and semiconductor material containing same” (DIC Corporation, priority 2016, dated 2022)

Experiment: Mobility of BGBC transistor with semiconductor layer drop casted from p-xylene solution
Conditions: 0.4 wt % p-xylene solution drop casted, drain −80 V, gate swept +40 V to −60 V
Experimental: A glass substrate was subjected to ultrasonic cleaning with a neutral detergent aqueous solution, distilled water, acetone and ethanol in this order (each 30 min×3 times), a platinum gate electrode (thickness: 30 nm) was pattern-deposited on the glass substrate by sputtering through a shadow metal mask, and a gate insulator (thickness: 1 μm) made of a dichloro-di-p-xylylene polymer (polyparaxylylene) was formed over the gate electrode by thermal CVD. Then, on the gate insulator, gold source and drain electrodes were deposited through a shadow metal mask by vacuum evaporation (2×10^−6 Torr) with a thickness of 20 nm, a channel length of 75 μm, and a channel width of 3000 μm). Next, this substrate was immersed in an ethanol solution of pentafluorobenzenethiol (concentration: 0.08 wt %) for 1 hour and then rinsed with ethanol. Finally, 0.05 μL of a p-xylene solution (0.4 wt %) of compound (101) was drop casted over the source and drain electrodes followed by drying at room temperature, to form a semiconductor layer.
Under a state where −80 V was applied to the drain electrode of the common source, the current (Id) flowing into the drain electrode was measured while the voltage (Vg) applied to the gate electrode was swept from +40 V to −60 V. The mobility of the transistor fabricated as described above was calculated in units of cm^2/Vs from the slope of √{square root over (I)}d—Vg using the equation (Eq. 101). [Equation 1] Id═(W/2L)Cμ(Vg−VT)^2 (Eq. 101)
In the equation, W represents the channel width, L represents the channel length, μ represents the mobility, C represents the capacitance per area of the gate insulator, and VT represents the threshold voltage.
`CCCCCCc1ccc2cc3cc(-c4ccccc4)ccc3cc2c1` [Compound (101)] gave a Mobility of 1.2 cm^2/Vs.
`CCCCCCCc1ccc2cc3cc(-c4ccccc4)ccc3cc2c1` [Compound (102)] gave a Mobility of 2.4 cm^2/Vs.
Compound `CCCCCCCCc1ccc2cc3cc(-c4ccccc4)ccc3cc2c1` [Compound (103)] has a Mobility of 3.3 cm^2/Vs.
For `CCCCCCCCCc1ccc2cc3cc(-c4ccccc4)ccc3cc2c1` [Compound (104)], the Mobility was 1.7 cm^2/Vs.
In the case of `CCCCCCCCCCc1ccc2cc3cc(-c4ccccc4)ccc3cc2c1` [Compound (105)], the Mobility is reported as 2.1 cm^2/Vs.
In the case of `CCCCCCc1ccc2cc3cc(-c4ccc(C)cc4)ccc3cc2c1` [Compound (106)], the Mobility is reported as 2.3 cm^2/Vs.
`CCCCCCCCCCc1ccc2cc3cc(-c4ccc(C)cc4)ccc3cc2c1` [Compound (107)] showed a Mobility of 1.4 cm^2/Vs.
With `c1ccc(-c2ccc3cc4cc(-c5ccccc5)ccc4cc3c2)cc1` [Compound (C101), reference compound] the Mobility was “Semiconductor layer cannot be formed due”.
For `CCCCCCc1ccc2c(c1)sc1c3ccc(-c4ccccc4)cc3sc21` [Compound (C102)], the Mobility was 0.5 cm^2/Vs.
With `CCCCCCCc1ccc2c(c1)sc1c3ccc(-c4ccccc4)cc3sc21` [Compound (C103)] the Mobility was 0.6 cm^2/Vs.
With `CCCCCCCCc1ccc2c(c1)sc1c3ccc(-c4ccccc4)cc3sc21` [Compound (C104)] the Mobility was 0.5 cm^2/Vs.
For `CCCCCCCCCc1ccc2c(c1)sc1c3ccc(-c4ccccc4)cc3sc21` [Compound (C105)], the Mobility was 0.3 cm^2/Vs.
Compound `CCCCCCCCCCc1ccc2c(c1)sc1c3ccc(-c4ccccc4)cc3sc21` [Compound (C106)] has a Mobility of 0.1 cm^2/Vs.
Work on `CCCCCCc1ccc2c(c1)sc1c3ccc(-c4ccc(C)cc4)cc3sc21` [Compound (C107)] yielded a Mobility of 0.5 cm^2/Vs.
For `CCCCCCCCCCc1ccc2c(c1)sc1c3ccc(-c4ccc(C)cc4)cc3sc21` [Compound (C108)], the Mobility was 0.3 cm^2/Vs.
